# Laboratory results: the supplement of paper PMC9015667
# Where a name gives a salt, the structure may show the parent alone. This is one part of the list. Many values rest on one well or one pass, so single values are uncertain.
# Tested on: M249P (parental melanoma line)
# Test: reduction in cell viability relative to untreated/vehicle; higher = more growth inhibition
# Conditions: 200 nM; 72 h
row,SMILES,reduction in cell viability
1,CC(C)[C@H](C(=O)Nc1ccc(C(=O)NO)cc1)c1ccccc1,43.9%
2,Cc1cn[nH]c1 [Fomepizole],< 0%
3,CC(C)NCC(O)c1ccc(O)c(O)c1 (stereo not drawn) [Isoproterenol],< 0%
4,Cc1ccc(NC(=O)C2(c3ccc4c(c3)OC(F)(F)O4)CC2)nc1-c1cccc(C(=O)O)c1 [Lumacaftor],< 0%
5,CCOc1cc(N2CCC(O)CC2)ccc1Nc1ncc2c(n1)N(C)c1ccccc1C(=O)N2C,< 0%
6,Clc1ccc(CCC(Cn2ccnc2)Sc2c(Cl)cccc2Cl)cc1 (stereo not drawn) [Butoconazole nitrate],< 0%
7,COc1ccc(C2CC(c3ccccc3)=NN2c2ccc(S(N)(=O)=O)cc2)cc1 (stereo not drawn),< 0%
8,O=c1[nH]nc(OCCCc2ccc(Cl)cc2)c(NCc2cccnc2)c1Br [Parogrelil],< 0%
9,COc1cc(N2CCC(N3CCN(C)CC3)CC2)ccc1Nc1ncnc(Nc2ccccc2S(=O)(=O)C(C)C)n1,< 0%
10,C[C@H](NCc1ccc2c(c1)nc(NC(=O)c1ccc(-c3cn[nH]c3)s1)n2CCc1ccccc1)C(C)(C)C,92.5%
11,Nc1nc(OCc2ccccc2)c2nc[nH]c2n1 [O6-Benzylguanine],< 0%
12,CC1(C)OC2=C(C(=O)c3ccccc3C2=O)[C@H](NCc2ccccc2)[C@@H]1O,< 0%
13,CCC(=O)O[C@]1(C(=O)CO)CC[C@H]2[C@@H]3CCC4=CC(=O)CC[C@]4(C)[C@H]3CC[C@@]21C [17 alpha-propionate],< 0%
14,C=CC(=O)Nc1cccc(Oc2nc(Nc3ccc(N4CCN(C)CC4)cc3OC)ncc2Cl)c1,< 0%
15,Cc1[nH]c2ccccc2c1CCNCc1ccc(/C=C/C(=O)NO)cc1 [Panobinostat (LBH589)],88.9%
16,Cc1c(-c2cccc3c(CCCOc4cccc5ccccc45)c(C(=O)O)n(Cc4cccnc4)c23)c(COc2ccc(N3CCN([S+](=O)([O-])N(C)C)CC3)cc2)nn1C,< 0%
17,O=C(NCc1ccccc1)c1csc(Nc2ccncn2)n1 [Thiazovivin],< 0%

row,SMILES,reduction in cell viability
1,CNc1nc(Nc2ccc(C(=O)N3CCOCC3)cc2OC)ncc1Cl,< 0%
2,O=C(CCCCCCC(=O)Nc1ccc([C@H]2O[C@@H](CSc3nc(-c4ccccc4)c(-c4ccccc4)o3)C[C@@H](c3ccc(CO)cc3)O2)cc1)NO [Tubacin],< 0%
3,CC1(C)CCC[C@]2(C)[C@H]3CC(=O)O[C@]3(C)CC[C@@H]12 [Sclareolide],< 0%
4,N#Cc1c(O)c2c(-c3ccc(-c4ccccc4O)cc3)csc2[nH]c1=O,< 0%
5,O=c1[nH]c(=O)n([C@H]2C[C@H](O)[C@@H](CO)O2)cc1F [Floxuridine],< 0%
6,CN(C)CCN(Cc1ccc(Cl)cc1)c1ccccn1 [Chloropyramine hydrochloride],< 0%
7,N#Cc1c(C2CCNCC2)cc(-c2c(O)cccc2OCC2CC2)nc1N [IKK-2 Inhibitor VIII],< 0%
8,CN1CCN(c2ncc(-c3cc(Cl)cc(Cl)c3Cl)c(N)n2)CC1 [Sipatrigine],< 0%
9,CC(=O)N1CCN(c2ccc(OCc3nn(C)c(C)c3-c3cccc4c(CCCOc5cc(C)c(Cl)c(C)c5)c(C(=O)O)n(Cc5cccnc5)c34)cc2)CC1,< 0%
10,CCC1=C[C@@H]2CN(C1)Cc1c([nH]c3ccccc13)[C@@](C(=O)OC)(c1cc3c(cc1OC)N(C)[C@H]1[C@@](O)(C(=O)OC)[C@H](OC(C)=O)[C@]4(CC)C=CCN5CC[C@]31[C@@H]54)C2 [Vinorelbine tartrate],62.1%
11,CC1(C)C(N(O)C(=O)Nc2ccc(Cl)cc2)N(c2ccc(Cl)cc2)C(=O)N1CC(=O)NN=CC=Cc1ccc([N+](=O)[O-])o1 (stereo not drawn) [Eeyarestatin I],< 0%
12,COc1cc2ncnc(Nc3ccc(F)c(Cl)c3)c2cc1NC(=O)/C=C/CN1CCCCC1 [Dacomitinib],< 0%
13,CNC(=O)CN1CCC(Oc2cc3c(Nc4cccc(Cl)c4F)ncnc3cc2OC)CC1 [Sapitinib],< 0%
14,COc1c(OCCCN2CCOCC2)ccc2c1N=C(NC(=O)c1cnc(N)nc1)N1CCN=C21,< 0%
15,C=CC(=O)N1CCc2ccc(-n3c(=O)ccc4cnc5ccc(-c6cnn(C)c6)cc5c43)cc21,< 0%
16,CC[C@H](/C=C/[C@@H](C)[C@H]1CC[C@H]2[C@@H]3CC=C4C[C@@H](O)CC[C@]4(C)[C@H]3CC[C@]12C)C(C)C [Stigmasterol],< 0%

# A draw from above in order of molecular weight, rising:
row,SMILES,reduction in cell viability
4,N#Cc1c(O)c2c(-c3ccc(-c4ccccc4O)cc3)csc2[nH]c1=O,< 0%
6,Clc1ccc(CCC(Cn2ccnc2)Sc2c(Cl)cccc2Cl)cc1 (stereo not drawn) [Butoconazole nitrate],< 0%
10,C[C@H](NCc1ccc2c(c1)nc(NC(=O)c1ccc(-c3cn[nH]c3)s1)n2CCc1ccccc1)C(C)(C)C,92.5%
